# In PubChem BioAssay AID504648 (National Center for Advancing Translational Sciences (NCATS), 2011):
# Out of some 390,000 compounds screened, about 610 (0.16%) were called active. The inconclusive results got no clear call from the source; some entries with a clear call stand among them for comparison. Calls come from the whole dose curve; as a rule, active = well fitted inhibition curve with a large enough effect; inconclusive = small, poorly fitted or top-dose-only effect, or effect the other way, or another doubt; inactive = no such curve, though single readings can be large or run the other way. Where the call is inconclusive, the potency comes from a doubtful curve fit.
# Experiment: Nrf2 qHTS screen for inhibitors: counterscreen for cytotoxicity
# Details: A549 ARE-Fluc cells, CellTiter-Fluor viability, 18-24 h; activity change, negative = cytotoxicity: at 46 µM (top of the series)
# Procedure, shortened: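 Cytotoxicity counterscreen: CellTiter-Fluor fluorescence was measured in A549 ARE_Fluc cells after 18-24 h of compound exposure in a concentration series. The subsequent BugLite luminescent read reports ARE-luciferase activity.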
# % is set by controls: 0 for no effect and ±100 for the full control effect; potency is the fitted concentration of half-maximal effect.
SMILES,"activity change, negative = cytotoxicity",Potency
CCCN1CCC(NC(=O)Cc2cccc(C)c2)CC1,inactive: 0.452%,–
CCCn1c(NC(=O)c2cccc(S(=O)(=O)N3CCCC3)c2)nc2ccccc21,–,"inconclusive: 25.9 µM [falling, single point]"
CC(C)c1ccc(S(=O)(=O)c2cnc(SCC(=O)Nc3ccc4c(c3)OCCO4)[nH]c2=O)cc1,–,"inconclusive: 32.6 µM [falling, partial curve, poor fit]"
Cc1cccc(C(=O)NNc2ncnc3c2cnn3-c2ccc(C)cc2C)c1,–,"inconclusive: 32.6 µM [falling, partial curve, poor fit]"
O=[N+]([O-])c1ccccc1-c1cc(-c2ccccc2O)n[nH]1,–,"inconclusive: 2.59 µM [activator, partial curve, poor fit]"
Cc1ccccc1NC(=O)/C=C/c1cccs1,inactive: -3.21%,–
COc1ccccc1-c1cc(C(=O)NN)[nH]n1,–,"inconclusive: 23.1 µM [falling, partial curve, poor fit]"
O=c1[nH]nc(Cc2ccc(Cl)cc2)c2ccccc12,–,"inconclusive: 5.17 µM [activator, full curve, poor fit]"
CNc1nc(-c2ccccn2)nnc1-c1ccccc1,–,"inconclusive: 35.5 µM [falling, single point]"
CCn1cc(C(=O)NCCCN2CCC(C)CC2)c(=O)c2cc(S(=O)(=O)N(C)C3CCCCC3)ccc21,–,"inconclusive: 29.1 µM [falling, single point]"
CCN(CC)CCN1CCn2c3c(c4cc(C)ccc42)CCCC31 (stereo not given),inactive: 7.27%,–
Cc1ccc(NC(=O)c2ccc(Cl)c(S(=O)(=O)N3CCCC3)c2)nc1,inactive: -2.38%,–
N#Cc1sc2nc(C3CC3)cc(-c3ccccc3)c2c1N,–,"inconclusive: 2.31 µM [activator, full curve, poor fit]"
Cc1cc(NC(=O)COn2nnc3ccc(S(C)(=O)=O)cc32)ccc1Br,–,"inconclusive: 11.6 µM [falling, partial curve, poor fit]"
O=C(O)/C=C\C(=O)Nc1cc(O)ccc1[N+](=O)[O-],–,"inconclusive: 32.6 µM [falling, partial curve, poor fit]"
O=C1[C@H](Cc2ccccc2)NCC=CC[C@H](c2ccc(Cl)cc2)N1Cc1ccc(Cl)cc1,–,"inconclusive: 23.1 µM [falling, single point]"
CCOC(=O)C1C(=O)C=C(c2ccc(Br)cc2)CC1c1ccco1 (stereo not given),–,"inconclusive: 29.1 µM [falling, partial curve, poor fit]"
CC(=C\c1ccccc1)/C=C1/SC(=S)N(CCCC(=O)O)C1=O,inactive: -9.06%,–
Cc1cc(C)n(CCNC(=O)c2cc(COc3ccc4ncccc4c3)on2)n1,inactive: 2.49%,–
CC(=O)N1N=C(c2cccs2)CC1c1cccc([N+](=O)[O-])c1 (stereo not given),inactive: 11%,–
CC(C)(C)c1ccc(Nc2nc(C#N)nc(NC3CCCC3)n2)cc1,–,"inconclusive: 29.1 µM [falling, single point]"
CC(C)CC1Nc2ncnc(N3CCN(c4ccccn4)CC3)c2N(Cc2ccc(Cl)cc2)C1=O (stereo not given),–,"inconclusive: 32.6 µM [falling, single point]"
CCN(CC(=O)Nc1ccc(OC)cc1)C(=O)c1oc2c(Cl)cccc2c1C,inactive: 0.187%,–
COc1cc(/C=C2/C(=O)NN(c3ccc(F)cc3)C2=O)cc([N+](=O)[O-])c1O,–,"inconclusive: 16.4 µM [falling, partial curve, poor fit]"

SMILES,"activity change, negative = cytotoxicity",Potency
CCc1ccc(N=CC23c4ccccc4C(c4ccccc42)C2C(=O)N(c4ccc(OC)cc4)C(=O)C23)cc1 (stereo not given),–,"inconclusive: 18.4 µM [falling, single point]"
COc1ccc(CC(=O)Nc2ccc(-c3nc4ccccc4s3)cc2Cl)cc1OC,inactive: -0.685%,–
Oc1ccc(CN2CCN(Cc3ccccc3)CC2)c2cccnc12,inactive: -9.89%,–
CCOC(=O)c1ccc(Nc2ncnc3c2cnn3C)cc1,inactive: -0.543%,–
CCCCn1c(N)c(N(CCC(C)C)C(=O)COC(=O)/C=C/c2ccc(F)cc2)c(=O)[nH]c1=O,–,"inconclusive: 20.6 µM [falling, single point]"
C=C1N(C)c2cc([N+](=O)[O-])c(N)cc2C1(C)C,–,"inconclusive: 25.9 µM [falling, partial curve, poor fit]"
CCOc1ccc(CNC(=O)CN2C(=O)CCn3nc(-c4cn(C)c5ccccc45)cc32)cc1OC,–,"inconclusive: 20.6 µM [activator, partial curve, poor fit]"
CC1(C(=O)NC2CCCCC2)Cc2ccccc2C(=O)N1Cc1ccc(Cl)cc1 (stereo not given),inactive: 0.893%,–
COc1ccc(/C=C/C(=O)Nc2ccc3nc(N4CCC(C)CC4)cc(C)c3c2)cc1OC,–,"inconclusive: 32.6 µM [falling, partial curve, poor fit]"
CCc1c(C#N)c(SCCC(=O)Nc2ccc(F)cc2)nc2c1C(=O)CC(C)(C)C2,–,"inconclusive: 23.1 µM [falling, single point]"
CCCCCCCN1C(Nc2ccccc2)=NC[C@@H]1Cc1ccccc1,inactive: -8.11%,–
COc1ccc(CNC(=O)CCCCCn2c(SCC#N)nc3cc4c(cc3c2=O)OCO4)cc1,–,"inconclusive: 0.517 µM [activator, full curve, poor fit]"
O=C(Nc1ccc(Oc2ccccc2)cc1)c1cnc2n(c1=O)CCS2,inactive: -2.71%,–
CCOC(=O)C1CCN(c2cc3c(cc2NC(=O)c2ccc(OC)c(OC)c2)n(C)c(=O)n3C)CC1,–,inactive
Cc1cccc(-c2n[nH]c(=S)n2/N=C/c2ccco2)c1,inactive: -5.53%,–
CCC(CC)C(=O)NCc1ccc2c(c1)cc(C)n2C,–,"inconclusive: 29.1 µM [falling, single point]"
O=C(NNc1nc(-c2ccccc2)cs1)c1ccco1,–,"inconclusive: 29.1 µM [falling, single point]"
Cn1nc(C(F)(F)F)c(C(=O)Nc2ccc(F)cc2F)c1Sc1cccc(Cl)c1,–,"inconclusive: 23.1 µM [falling, partial curve]"
O=C(Cc1ccccc1)N/N=C/c1ccc([N+](=O)[O-])s1,–,"inconclusive: 16.4 µM [falling, single point]"
CCCCOc1nc2ccccc2nc1C(C#N)S(=O)(=O)c1ccccc1 (stereo not given),–,"inconclusive: 25.9 µM [falling, single point]"
On1c(-c2ccccc2)nc2ncccc21,inactive: 14%,–
CCOC(=O)c1c(-c2ccc(F)cc2)csc1NC(=O)CCN1CCOCC1,inactive: -3.24%,–
COc1ccc(OC)c(/C=C2\SC(=S)N(C(C(=O)O)c3ccccc3)C2=O)c1 (stereo not given),inactive: -4.59%,–
Cc1cc(/C=N\NC(=O)CC(=O)NC2CCCCC2)c(C)n1-c1ccc(Cl)c(Cl)c1,–,"inconclusive: 29.1 µM [falling, single point]"

SMILES,"activity change, negative = cytotoxicity",Potency
N#Cc1c(NC(=O)c2ccc(Br)o2)n(-c2ccccc2)c2nc3ccccc3nc12,inactive: -12.2%,–
COc1ccc2cc(CNCCOCCOCCNCc3ccc4cc(OC)ccc4c3)ccc2c1,inactive: -10.7%,–
COc1ccc(/C=C2\SC(=O)N(CCNC(=O)CN3C(=O)NC4(CCCC4)C3=O)C2=O)cc1,inactive: -7.06%,–
COc1cc(/C=C/C(=O)c2ccc(O)cc2)ccc1OCC#N,–,"inconclusive: 20.6 µM [falling, single point]"
S=c1[nH]nc(C2CC2c2ccc(Cl)cc2)n1-c1ccc(Cl)cc1 (stereo not given),–,"inconclusive: 29.1 µM [falling, single point]"
O=[N+]([O-])c1cc(Cl)cc(/C=N\Nc2ccccn2)c1O,–,"inconclusive: 18.4 µM [falling, partial curve, poor fit]"
O=C(/C=C/Nc1ccc(F)cc1F)c1ccco1,–,"inconclusive: 25.9 µM [falling, partial curve, poor fit]"
CCC(=O)Nc1cccc(-c2cn3ccccc3n2)c1,inactive: 1.78%,–
COc1ccc(CNCCSc2nnnn2-c2ccccc2)c(OC)c1,inactive: 13.5%,–
Cc1cccc(-c2c(NC(=O)c3ccco3)oc3c(C)cccc3c2=O)c1,–,"inconclusive: 8.2 µM [falling, partial curve, poor fit]"
CCOC(=O)c1oc2ccc(S(=O)(=O)n3nc(-c4cc(OC)cc(OC)c4)cc3N)cc2c1C,inactive: -4.76%,–
CCN(CC)CCNC(=O)c1ccc(Sc2ccc(C)cc2)c(NC(C)=O)c1,inactive: 1.15%,–
O=C(NC(c1ccc(Cl)cc1)c1cc(Cl)c2cccnc2c1O)c1cccnc1 (stereo not given),–,"inconclusive: 9.2 µM [falling, partial curve, poor fit]"
COc1cc(-c2c(C#N)c(N)nc3c2CCCC3)ccc1O,inactive: 0.805%,–
CCC(C)Sc1cccc(-c2nc3ccc(Cl)cn3c2NCc2ccccc2)c1 (stereo not given),–,"inconclusive: 20.6 µM [falling, single point]"
O=C(Nc1ccc(Cl)c(Cl)c1)Nc1nnc(CSc2ccccc2)s1,–,"inconclusive: 8.2 µM [falling, partial curve]"
COc1cccc(CNC(=O)COCc2cc(-c3ccc4c(c3)OCO4)on2)c1,inactive: -0.876%,–
CC1CCC2(CC1)N=C(c1ccccc1)C(=O)N2CC(=O)Nc1ccc(F)c(Cl)c1 (stereo not given),–,"inconclusive: 20.6 µM [falling, partial curve, poor fit]"
Cc1cccnc1Nc1nc(-c2ccc(O)cc2)cs1,–,"inconclusive: 1.64 µM [falling, partial curve, poor fit]"
O=C(NCCN1CCOCC1)c1cc2c(=O)n3ccccc3nc2n1Cc1ccccc1,–,"inconclusive: 4.11 µM [activator, single point]"
CCCCNc1c(-c2ccc(SC3CCCCC3)c(OC)c2)nc2ccc(C)cn12,–,"inconclusive: 20.6 µM [falling, partial curve, poor fit]"
Cc1ccc(S(=O)(=O)NC(C)(C)CSc2nnc(Nc3ccccc3)s2)cc1,–,"inconclusive: 25.9 µM [falling, single point]"

# Reformatted with bars between the fields: part of the list above
SMILES | activity change, negative = cytotoxicity | Potency
S=c1[nH]nc(C2CC2c2ccc(Cl)cc2)n1-c1ccc(Cl)cc1 (stereo not given) | – | inconclusive: 29.1 µM [falling, single point]
O=[N+]([O-])c1cc(Cl)cc(/C=N\Nc2ccccn2)c1O | – | inconclusive: 18.4 µM [falling, partial curve, poor fit]
Cc1ccc(S(=O)(=O)NC(C)(C)CSc2nnc(Nc3ccccc3)s2)cc1 | – | inconclusive: 25.9 µM [falling, single point]
